3 molecules from patent US20090304707A1 can be followed below.

The chains behind the UniProt entries cited, without tags or fusion partners. Residues count along the entry.
UniProt P09038, residues 134-288: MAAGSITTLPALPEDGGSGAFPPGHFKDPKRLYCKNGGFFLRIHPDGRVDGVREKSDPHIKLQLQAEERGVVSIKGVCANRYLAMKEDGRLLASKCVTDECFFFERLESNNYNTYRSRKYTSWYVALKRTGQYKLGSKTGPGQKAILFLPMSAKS
UniProt P15655, residues 10-154: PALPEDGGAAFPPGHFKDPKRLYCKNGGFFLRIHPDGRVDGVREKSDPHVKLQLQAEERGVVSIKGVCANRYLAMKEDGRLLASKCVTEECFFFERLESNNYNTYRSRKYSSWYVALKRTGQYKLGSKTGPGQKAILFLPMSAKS

These are yes or no findings as the source states them, for the method shown. Some results given as binding are weak or reduced against the parent protein; the word gives no strength.

For experiment [1], the target named is human basic fibroblast growth factor (FGF2) (human) (UniProt P09038). The experiment in a line: FGF2 binding ELISA, FGF2 captured on heparin-coated wells (FIG. 1). (An ELISA detects its analyte on a solid surface through an enzyme-linked reagent.)
For experiment [2], the target named is mouse FGF2 (mouse) (UniProt P15655). The experiment is described as above.
The target of experiment [3] is human basic fibroblast growth factor (FGF2) (human) (UniProt P09038). The experiment in a line: competitive binding ELISA, unlabelled GAL-F2 against biotinylated GAL-F2 on heparin-captured FGF2 (FIG. 3).
Experiment [4] has the same target. In words: competitive binding ELISA, competitor biotinylated GAL-F2, heparin-captured human FGF2 (FIG. 12).

B1: GAL-F2 anti-FGF2 mAb (mouse monoclonal antibody, hybridoma ATCC PTA-8864) (antibody, V domains shown)
VH: EVHLQQSGPELVKPGASVKMSCKASGYTFTNYVINWVKQKPGQGLEWIGYNDPYNDVSKYNEKFKGKATLTSDKSSSTAYMELSSLTSEDSAVYYCAKEGGGKYVYAMDSWGQGTSVTVSS
VL: SIVMTQTPKFLLVSAGDRVTMTCKASQSVSSDVGWYQQKPGQSPKLLIYSGSNRYSGVPDRFTGSGYGTDFTFTISTVQAEDLAVYFCQQDYYSPWTFGGGTKLEIK
Consider B1, for which the binding result in experiment [1], in experiment [2] and in experiment [3] was “binds” throughout.

B2: ChGAL-F2 (mouse-human chimeric GAL-F2 mAb) (antibody, V domains shown)
VH: EVHLQQSGPELVKPGASVKMSCKASGYTFTNYVINWVKQKPGQGLEWIGYNDPYNDVSKYNEKFKGKATLTSDKSSSTAYMELSSLTSEDSAVYYCAKEGGGKYVYAMDSWGQGTSVTVSS
VL: SIVMTQTPKFLLVSAGDRVTMTCKASQSVSSDVGWYQQKPGQSPKLLIYSGSNRYSGVPDRFTGSGYGTDFTFTISTVQAEDLAVYFCQQDYYSPWTFGGGTKLEIK
For B2, the binding result in experiment [4] is given as “binds”.

B3: HuGAL-F2 (humanized GAL-F2 mAb) (antibody, human IgG1, kappa, V domains shown)
VH: EVQLVQSGAEVKKPGSSVKVSCKASGYTFTNYVINWVRQAPGQGLEWIGYNDPYNDVSKYNEKFKGRATITSDKSTSTAYMELSSLRSEDTAVYYCAKEGGGKYVYAMDSWGQGTTVTVSS
VL: DIQMTQSPSSLSASVGDRVTITCKASQSVSSDVGWYQQKPGKAPKLLIYSGSNRYSGVPSRFSGSGSGTDFTLTISSLQPEDFATYYCQQDYYSPWTFGQGTKVEIKR
Regarding B3, the binding result in experiment [4] is on record as “binds”.
